According to the supplement of paper PMC8728848:
Some of the results follow.

Assays:
Test in all cases: glycan array binding signal (z-score within array); higher = stronger binding
Details in all cases: glycan notation: IUPAC condensed, linker removed
[1] = target: GlcNAc(b1-3)GalNAc
Summary of the method: (§1)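 The binding signal is a Z-score computed within each array and averaged over linkers. Arrays of the same protein sequence at different concentrations or buffers were also averaged together. Data originate from 3228 arrays in the Consortium for Functional Glycomics database, kept only where the protein sequence was available.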

[2] = target: GlcNAc(b1-3)Man
Summary of the method: as §1

[3] = target: GlcNAc(b1-3)[GlcNAc(b1-4)][GlcNAc(b1-6)]GlcNAc
Summary of the method: as §1

[4] = target: GlcNAc(b1-3)[GlcNAc(b1-6)]Gal(b1-4)GlcNAc
Summary of the method: as §1

[5] = target: GlcNAc(b1-3)[GlcNAc(b1-6)]GalNAc
Summary of the method: as §1

[6] = target: GlcNAc(b1-4)Gal(b1-4)GlcNAc
Summary of the method: as §1

[7] = target: GlcNAc(b1-4)GlcNAc
Summary of the method: as §1

[8] = target: GlcNAc(b1-4)GlcNAc(b1-4)GlcNAc
Summary of the method: as §1

[9] = target: GlcNAc(b1-4)GlcNAc(b1-4)GlcNAc(b1-4)GlcNAc(b1-4)GlcNAc
Summary of the method: as §1

[10] = target: GlcNAc(b1-4)GlcNAc(b1-4)GlcNAc(b1-4)GlcNAc(b1-4)GlcNAc(b1-4)GlcNAc
Summary of the method: as §1

[11] = target: GlcNAc(b1-4)[GlcNAc(b1-6)]GalNAc
Summary of the method: as §1

[12] = target: GlcNAc(b1-6)Gal(b1-4)GlcNAc
Summary of the method: as §1

[13] = target: GlcNAc(b1-6)GalNAc
Summary of the method: as §1

[14] = target: GlcNAc6S(b1-3)Gal(b1-4)GlcNAc
Summary of the method: as §1

[15] = target: Kdn(a2-3)Gal(b1-3)GalNAc
Summary of the method: as §1

[16] = target: Kdn(a2-3)Gal(b1-3)GlcNAc
Summary of the method: as §1

[17] = target: Kdn(a2-3)Gal(b1-4)Glc
Summary of the method: as §1

[18] = target: Kdn(a2-3)Gal(b1-4)GlcNAc
Summary of the method: as §1

[19] = target: Kdn(a2-3)Gal(b1-4)[Fuc(a1-3)]GlcNAc
Summary of the method: as §1

[20] = target: Kdn(a2-6)Gal(b1-4)GlcNAc
Summary of the method: as §1

[21] = target: Man(a1-2)Man(a1-2)Man(a1-3)Man
Summary of the method: as §1

[22] = target: Man(a1-2)Man(a1-2)Man(a1-6)[Man(a1-3)]Man
Summary of the method: as §1

[23] = target: Man(a1-2)Man(a1-3)Man
Summary of the method: as §1

[24] = target: Man(a1-2)Man(a1-3)[Man(a1-2)Man(a1-6)]Man
Summary of the method: as §1

[25] = target: Man(a1-2)Man(a1-3)[Man(a1-2)Man(a1-6)]Man(a1-6)[Man(a1-2)Man(a1-2)Man(a1-3)]Man
Summary of the method: as §1

[26] = target: Man(a1-2)Man(a1-3)[Man(a1-2)Man(a1-6)]Man(a1-6)[Man(a1-2)Man(a1-2)Man(a1-3)]Man(b1-4)GlcNAc(b1-4)GlcNAc
Summary of the method: as §1

[27] = target: Man(a1-2)Man(a1-3)[Man(a1-6)]Man(a1-6)[Man(a1-2)Man(a1-3)]Man(b1-4)GlcNAc(b1-4)GlcNAc
Summary of the method: as §1

[28] = target: Man(a1-2)Man(a1-6)[Man(a1-3)]Man(a1-6)[Man(a1-2)Man(a1-2)Man(a1-3)]Man
Summary of the method: as §1

[29] = target: Man(a1-2)Man(a1-6)[Man(a1-3)]Man(a1-6)[Man(a1-2)Man(a1-2)Man(a1-3)]Man(b1-4)GlcNAc(b1-4)GlcNAc
Summary of the method: as §1

[30] = target: Man(a1-3)[Man(a1-6)]Man
Summary of the method: as §1

[31] = target: Man(a1-3)[Man(a1-6)]Man(a1-6)[Man(a1-2)Man(a1-3)]Man(b1-4)GlcNAc(b1-4)GlcNAc
Summary of the method: as §1

[32] = target: Man(a1-3)[Man(a1-6)]Man(a1-6)[Man(a1-3)]Man
Summary of the method: as §1

[33] = target: Man(a1-3)[Man(a1-6)]Man(a1-6)[Man(a1-3)]Man(b1-4)GlcNAc(b1-4)GlcNAc
Summary of the method: as §1

[34] = target: Man(a1-3)[Man(a1-6)]Man(b1-4)GlcNAc(b1-4)GlcNAc
Summary of the method: as §1

[35] = target: Man(a1-3)[Man(a1-6)]Man(b1-4)GlcNAc(b1-4)[Fuc(a1-6)]GlcNAc
Summary of the method: as §1

[36] = target: Man(a1-6)Man
Summary of the method: as §1

[37] = target: Man(b1-4)GlcNAc
Summary of the method: as §1

[38] = target: MurNAc(b1-4)GlcNAc
Summary of the method: as §1

B1: AT1G80310(18) (Arabidopsis thaliana), Q0WP36 (protein)
chain: METTTTPLLPGDRSRCGWLRRRLRLKNPLSSELSGAVGDLGTFIPIVLTLTLVSNLDLSTTLIFTGFYNIATGLLFDIPMPVQPMKSIAAVAVSESPHLTPSQIAAAGASTAATLLLLGATGAMSFLYNIIPLPVVRGVQLSQGLQFAFTAIKYVRFNYDTATLKPSSSPRIWLGLDGLILALAALLFIILSTGSGNDREAEDGDLAETSSNESQSRRRRLRLLSSIPSALIVFALGLVLCFIRDPSIFKDLKFGPSKFHILRISWDDWKIGFLRAAIPQIPLSVLNSVIAVCKLSNDLFDKELSATTVSISVGVMNLIGCWFGAMPVCHGAGGLAGQYRFGARSGLSVIFLGIGKLIVGLVFGNSFVRILSQFPIGILGVLLLFAGIELAMASKDMNSKEDSFIMLVCAAVSMTGSSAALGFGCGVVLYLLLKLRTLDCSSVTLFSRSSDESQVDSEAAPRDV
- glycan array binding signal (z-score) [1]: -0.124
- glycan array binding signal (z-score) [2]: 0.027
- glycan array binding signal (z-score) [3]: -0.066
- glycan array binding signal (z-score) [4]: -0.578
- glycan array binding signal (z-score) [5]: -0.421
- glycan array binding signal (z-score) [6]: -0.372
- glycan array binding signal (z-score) [7]: -0.007
- glycan array binding signal (z-score) [8]: -0.8
- glycan array binding signal (z-score) [9]: 0.779
- glycan array binding signal (z-score) [10]: -0.6
- glycan array binding signal (z-score) [11]: 1.65
- glycan array binding signal (z-score) [12]: -0.608
- glycan array binding signal (z-score) [13]: -0.127
- glycan array binding signal (z-score) [14]: 0.436
- glycan array binding signal (z-score) [15]: 0.355
- glycan array binding signal (z-score) [16]: -0.62
- glycan array binding signal (z-score) [17]: 0.008
- glycan array binding signal (z-score) [18]: -0.603
- glycan array binding signal (z-score) [19]: 0.664
- glycan array binding signal (z-score) [20]: -0.779
- glycan array binding signal (z-score) [21]: -0.37
- glycan array binding signal (z-score) [22]: 1.4
- glycan array binding signal (z-score) [23]: -0.834
- glycan array binding signal (z-score) [24]: -0.796
- glycan array binding signal (z-score) [25]: 0.822
- glycan array binding signal (z-score) [26]: 0.506
- glycan array binding signal (z-score) [27]: -0.023
- glycan array binding signal (z-score) [28]: -0.243
- glycan array binding signal (z-score) [29]: 0.024
- glycan array binding signal (z-score) [30]: -0.856
- glycan array binding signal (z-score) [31]: -0.585
- glycan array binding signal (z-score) [32]: -0.763
- glycan array binding signal (z-score) [33]: -0.217
- glycan array binding signal (z-score) [34]: -0.373
- glycan array binding signal (z-score) [35]: -0.517
- glycan array binding signal (z-score) [36]: 0.072
- glycan array binding signal (z-score) [37]: -0.679
- glycan array binding signal (z-score) [38]: -0.796
